Measured values as given in article PMC12698754.
These are yes or no findings as the source states them, for the method shown. In cells and extracts the contact can be indirect. Some results given as binding are weak or reduced against the parent protein; the word gives no strength. For some of these results: Tags and fused reporters may be left off the sequences shown. Each block holds one molecule with its values, some of them ahead of it.

Sequences of proteins named here, by UniProt entry; tags and fusion partners are left off.
UniProt P46379: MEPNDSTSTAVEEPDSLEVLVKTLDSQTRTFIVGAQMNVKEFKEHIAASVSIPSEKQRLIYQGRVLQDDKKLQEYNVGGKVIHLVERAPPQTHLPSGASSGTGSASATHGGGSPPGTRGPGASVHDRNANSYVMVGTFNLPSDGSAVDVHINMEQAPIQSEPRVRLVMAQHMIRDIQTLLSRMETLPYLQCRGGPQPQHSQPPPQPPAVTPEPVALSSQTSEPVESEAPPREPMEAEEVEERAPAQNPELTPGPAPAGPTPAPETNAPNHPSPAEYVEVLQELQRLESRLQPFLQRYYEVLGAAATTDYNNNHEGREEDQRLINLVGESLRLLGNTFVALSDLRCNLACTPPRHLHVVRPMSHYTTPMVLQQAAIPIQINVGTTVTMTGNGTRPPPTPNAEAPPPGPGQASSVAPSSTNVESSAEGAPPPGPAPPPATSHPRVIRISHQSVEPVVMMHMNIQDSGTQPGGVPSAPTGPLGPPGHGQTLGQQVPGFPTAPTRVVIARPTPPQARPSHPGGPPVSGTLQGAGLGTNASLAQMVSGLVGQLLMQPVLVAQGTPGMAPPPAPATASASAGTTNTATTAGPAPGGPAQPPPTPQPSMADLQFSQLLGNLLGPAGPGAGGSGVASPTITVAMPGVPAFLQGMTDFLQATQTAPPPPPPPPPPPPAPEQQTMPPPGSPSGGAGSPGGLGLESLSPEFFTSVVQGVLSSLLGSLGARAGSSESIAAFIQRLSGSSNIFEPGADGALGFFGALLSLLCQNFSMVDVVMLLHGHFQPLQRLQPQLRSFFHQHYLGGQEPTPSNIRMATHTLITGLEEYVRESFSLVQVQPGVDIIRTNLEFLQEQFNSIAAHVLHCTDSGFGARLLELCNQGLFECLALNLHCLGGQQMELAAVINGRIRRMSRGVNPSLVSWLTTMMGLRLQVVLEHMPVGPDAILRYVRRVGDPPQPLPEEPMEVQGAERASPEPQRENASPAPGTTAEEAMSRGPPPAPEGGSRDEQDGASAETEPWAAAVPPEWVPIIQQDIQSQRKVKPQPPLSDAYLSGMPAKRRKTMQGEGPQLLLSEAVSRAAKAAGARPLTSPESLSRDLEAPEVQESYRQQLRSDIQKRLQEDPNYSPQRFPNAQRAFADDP
UniProt Q09472: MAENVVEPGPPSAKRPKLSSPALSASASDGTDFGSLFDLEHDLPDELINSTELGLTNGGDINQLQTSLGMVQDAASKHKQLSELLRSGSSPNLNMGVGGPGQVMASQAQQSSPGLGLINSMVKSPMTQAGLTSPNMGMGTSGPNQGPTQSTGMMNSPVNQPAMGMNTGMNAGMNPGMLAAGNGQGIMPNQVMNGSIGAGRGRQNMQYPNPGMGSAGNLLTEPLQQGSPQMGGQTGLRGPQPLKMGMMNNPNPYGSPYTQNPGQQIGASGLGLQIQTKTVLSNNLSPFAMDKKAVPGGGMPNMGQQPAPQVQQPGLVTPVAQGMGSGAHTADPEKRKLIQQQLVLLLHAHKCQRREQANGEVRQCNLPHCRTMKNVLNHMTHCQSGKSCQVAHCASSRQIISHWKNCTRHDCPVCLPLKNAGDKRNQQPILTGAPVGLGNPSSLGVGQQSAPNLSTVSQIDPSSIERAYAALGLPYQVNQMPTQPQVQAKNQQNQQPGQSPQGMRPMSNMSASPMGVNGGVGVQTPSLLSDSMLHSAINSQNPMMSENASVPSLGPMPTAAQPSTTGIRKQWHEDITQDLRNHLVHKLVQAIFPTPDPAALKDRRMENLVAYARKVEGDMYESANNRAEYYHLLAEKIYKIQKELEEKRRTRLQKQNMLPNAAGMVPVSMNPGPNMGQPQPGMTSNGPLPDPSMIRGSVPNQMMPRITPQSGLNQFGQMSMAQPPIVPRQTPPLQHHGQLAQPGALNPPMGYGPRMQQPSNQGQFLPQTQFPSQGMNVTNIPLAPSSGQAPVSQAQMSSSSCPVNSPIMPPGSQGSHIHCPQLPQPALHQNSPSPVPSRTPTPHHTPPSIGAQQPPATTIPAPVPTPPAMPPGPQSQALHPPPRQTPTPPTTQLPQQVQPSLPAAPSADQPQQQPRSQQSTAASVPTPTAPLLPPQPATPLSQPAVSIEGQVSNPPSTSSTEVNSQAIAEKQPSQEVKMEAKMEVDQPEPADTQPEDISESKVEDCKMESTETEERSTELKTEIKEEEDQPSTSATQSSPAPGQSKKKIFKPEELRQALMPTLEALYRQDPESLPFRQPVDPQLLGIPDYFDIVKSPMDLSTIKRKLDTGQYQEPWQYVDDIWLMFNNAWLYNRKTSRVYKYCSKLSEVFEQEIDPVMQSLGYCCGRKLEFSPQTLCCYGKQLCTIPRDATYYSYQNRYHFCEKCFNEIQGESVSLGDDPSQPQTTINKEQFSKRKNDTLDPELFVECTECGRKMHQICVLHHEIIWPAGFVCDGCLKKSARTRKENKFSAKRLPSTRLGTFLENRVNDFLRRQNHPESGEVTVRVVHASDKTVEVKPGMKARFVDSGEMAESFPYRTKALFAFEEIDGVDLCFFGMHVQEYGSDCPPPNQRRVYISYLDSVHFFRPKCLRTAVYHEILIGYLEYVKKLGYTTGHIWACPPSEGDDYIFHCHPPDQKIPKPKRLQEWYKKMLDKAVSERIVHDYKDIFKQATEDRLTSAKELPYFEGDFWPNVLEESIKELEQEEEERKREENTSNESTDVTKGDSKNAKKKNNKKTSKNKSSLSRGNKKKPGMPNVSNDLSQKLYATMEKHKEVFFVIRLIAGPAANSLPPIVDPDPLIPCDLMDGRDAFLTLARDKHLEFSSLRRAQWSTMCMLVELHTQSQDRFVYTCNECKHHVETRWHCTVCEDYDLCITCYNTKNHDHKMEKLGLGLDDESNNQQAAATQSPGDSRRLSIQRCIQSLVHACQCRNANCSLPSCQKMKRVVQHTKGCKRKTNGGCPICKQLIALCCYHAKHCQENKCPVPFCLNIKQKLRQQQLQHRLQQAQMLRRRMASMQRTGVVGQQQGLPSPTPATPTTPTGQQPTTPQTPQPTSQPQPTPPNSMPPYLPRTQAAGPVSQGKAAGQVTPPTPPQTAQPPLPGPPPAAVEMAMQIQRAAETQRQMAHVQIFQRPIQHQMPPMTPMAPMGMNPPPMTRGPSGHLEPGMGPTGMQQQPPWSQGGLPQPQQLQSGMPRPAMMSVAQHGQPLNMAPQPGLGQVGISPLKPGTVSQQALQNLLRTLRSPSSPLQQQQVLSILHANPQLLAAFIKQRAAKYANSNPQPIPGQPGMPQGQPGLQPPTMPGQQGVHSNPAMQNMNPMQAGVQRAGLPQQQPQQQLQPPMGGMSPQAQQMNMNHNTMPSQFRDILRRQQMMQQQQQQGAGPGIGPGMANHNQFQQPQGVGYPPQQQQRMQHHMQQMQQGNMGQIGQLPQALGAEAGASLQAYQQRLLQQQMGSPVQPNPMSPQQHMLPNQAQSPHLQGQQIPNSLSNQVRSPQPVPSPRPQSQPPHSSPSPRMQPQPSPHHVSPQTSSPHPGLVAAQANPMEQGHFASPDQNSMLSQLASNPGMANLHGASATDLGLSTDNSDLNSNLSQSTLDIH

Legend:
[1] = molecular target: BAG6-HA (UniProt P46379); test: co-IP; HEK-293T cells transfected with EP300-Flag and BAG6-HA with or without RAB3A-V5, anti-tag beads, western blot
[2] = molecular target: T1, RAB3A (endogenous) (human (endogenous in NCI-H1993 / NCI-H1975)) (UniProt P20336); test: co-IP; Co-IP from purified mitochondrial lysates (mitochondrial fractions)
T1 sequence: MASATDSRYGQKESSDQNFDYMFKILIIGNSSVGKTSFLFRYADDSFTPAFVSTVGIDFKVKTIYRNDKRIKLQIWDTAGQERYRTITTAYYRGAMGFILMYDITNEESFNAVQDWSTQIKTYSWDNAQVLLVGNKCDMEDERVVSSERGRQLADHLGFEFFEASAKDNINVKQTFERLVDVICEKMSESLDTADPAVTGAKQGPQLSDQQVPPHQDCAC

[3] = molecular target: T1, RAB3A (endogenous) (human (endogenous in NCI-H1993 / NCI-H1975)); test: co-IP; endogenous immunoprecipitation: lysate pre-cleared with Protein A/G Agarose, target antibody overnight, Protein A/G Agarose capture, western blot, IgG control; for BAG6-EP300 NCI-H1993 cells with or without RAB3A knockdown
[4] = molecular target: BAG6 (endogenous) (human (endogenous in NCI-H1993)) (UniProt P46379); test: as above
[5] = molecular target: T2, RAB3A-Flag (UniProt P20336); test: co-IP; HEK-293T cells co-transfected with RAB3A-Flag and BAG6-HA, lysed in IP Lysis Buffer, anti-tag beads 3 h at 4 °C, western blot; reciprocal
T2 sequence: T1 sequence

[6] = molecular target: BAG6-HA (UniProt P46379); test: as above

- binding [1]: binds
Molecule: EP300-Flag (from UniProt Q09472 1-2414)

- binding [2]: binds
- binding [3]: binds
Molecule: BAG6 (endogenous) (from UniProt P46379 1-1132)

- binding [4]: binds
Molecule: EP300 (endogenous) (from UniProt Q09472 1-2414)

- binding [5]: binds
Molecule: BAG6-HA (from UniProt P46379 1-1132)

- binding [6]: binds
B1: RAB3A-Flag (protein, UniProt P20336 1-220)
chain: T1 sequence

- binding [1]: binds
B2: RAB3A-V5 (protein, UniProt P20336 1-220)
chain: T1 sequence
